Measurements as given in PubChem BioAssay AID504444 (National Center for Advancing Translational Sciences (NCATS), 2011).
Among all 360,000 compounds or so, about 7,500 (2.1%) were called active. The shares of active, inactive and inconclusive entries below differ from those in the screen. Calls come from the whole dose curve; as a rule, active = well fitted inhibition curve with a large enough effect; inconclusive = small, poorly fitted or top-dose-only effect, or effect the other way; inactive = flat fitted curve, though single readings scatter. A potency beside an inconclusive call is a rough fit, not a confirmed value.

Experiment: Nrf2 qHTS screen for inhibitors; note: nearly all actives have a fitted effect of over 60% in size
Details: A549 ARE-Fluc reporter, luciferase luminescence, 18-24 h; series mostly up to 46 µM
Summary of the method: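 Nrf2 function is reported as luminescence of an ARE-controlled luciferase in A549 cells. Compounds were tested at several concentrations, and a CellTiter-Fluor read on the same wells flagged cytotoxicity.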
Potency is the fitted concentration of half-maximal effect.

SMILES	Potency
Cc1ccc(Cc2c(C)nn(-c3nc(C)c(C(=O)N4CCCCC4C)s3)c2C)cc1 (stereo not drawn)	inactive
O=C(Nc1ccccc1N1CCCC1)c1cccnc1	inactive
Cc1ccccc1C(=O)N1CCc2cc(-c3csc(NC(=O)CN4CCCC4)n3)ccc21	inconclusive: 32.6 µM [falling, single point]
O=C(CCCc1ccccc1)N1CCc2ccccc21	inconclusive: 1.84 µM [activator, full curve]
COc1ccc(/C=C2\SC(=O)N=C2N)cc1OC	inactive
COc1ccc(NC(=O)C2CCCN(S(=O)(=O)c3c(C)n[nH]c3C)C2)cc1OC (stereo not drawn)	inconclusive: 29.1 µM [falling, single point]
O=C(Nc1ccc(-c2nc3ccccc3[nH]2)cc1)C1CCCO1 (stereo not drawn)	inconclusive: 16.4 µM [falling, single point]
CCCCCCNC(=O)C(C(=O)OCC)C1CCCCC1 (stereo not drawn)	inconclusive: 16.4 µM [falling, partial curve, poor fit]
COc1cc(C2c3c(oc4ccccc4c3=O)C(=O)N2c2nc(C)c(C)s2)ccc1O (stereo not drawn)	inactive
Cc1ccc(C(=O)CSC2=NC(N)=C(C#N)C3(CCCCC3)C2C(N)=O)cc1 (stereo not drawn)	inconclusive: 8.2 µM [falling, partial curve, poor fit]
Cc1[nH]n(-c2ccc([N+](=O)[O-])cc2)c(=O)c1C=NCCc1c(C)[nH]c2ccccc12	inconclusive: 9.2 µM [falling, partial curve, poor fit]
Cc1nc2nc(NC(=O)c3ccc(F)cc3)[nH]n2c(=O)c1Cc1ccccc1	inactive
COc1ccc(C2=NS(=O)(=O)N(C)C(C(=O)Nc3ccc(F)cc3F)=C2)cc1	inconclusive: 29.1 µM [falling, single point]
COc1ccc(NC(=O)CSc2nnc(-c3cccnc3)o2)cc1	inconclusive: 5.8 µM [falling, partial curve, poor fit]
CN(CC(=O)Nc1ccc(S(=O)(=O)N2CCCC2)cc1)Cc1cccc(Cl)c1Cl	inconclusive: 10.3 µM [falling, partial curve]
Cc1c(C(=O)OC2CCCCC2)[nH]c2c1C(=O)CC(c1ccccc1Cl)C2 (stereo not drawn)	inactive
COc1cc(OC)c(S(=O)(=O)Nc2ccc(C(=O)N3CCCC3)cc2)cc1NC(C)=O	inconclusive: 0.0731 µM [activator, full curve, poor fit]
O=C(CN(Cc1ccccc1)S(=O)(=O)c1ccc2c(c1)OCCO2)Nc1ccc2c(c1)OCCO2	inconclusive: 29.1 µM [activator, single point]
CSc1nc(NCC(C)O)c2c3c(sc2n1)CN(C)CC3 (stereo not drawn)	inactive
Cc1cccn2c(=O)c(/C=C(\C#N)c3nc4ccccc4s3)c(Oc3ccc(Br)cc3)nc12	inactive
CCOc1ccccc1N(CC(=O)NC1CCCCC1)S(=O)(=O)c1ccccc1	inconclusive: 4.61 µM [falling, single point]
CCn1ncc(C2C(C(=O)Nc3ccc(C)cn3)=C(C)NC3=C2C(=O)CCC3)c1C (stereo not drawn)	inactive
CCOC(=O)c1nc(Nc2ccc(C)cc2)c2ccccc2n1	inconclusive: 0.517 µM [falling, full curve]

Another view of some results above.
SMILES,Potency
COc1cc(C2c3c(oc4ccccc4c3=O)C(=O)N2c2nc(C)c(C)s2)ccc1O (stereo not drawn),inactive
Cc1ccc(C(=O)CSC2=NC(N)=C(C#N)C3(CCCCC3)C2C(N)=O)cc1 (stereo not drawn),"inconclusive: 8.2 µM [falling, partial curve, poor fit]"
Cc1[nH]n(-c2ccc([N+](=O)[O-])cc2)c(=O)c1C=NCCc1c(C)[nH]c2ccccc12,"inconclusive: 9.2 µM [falling, partial curve, poor fit]"

Additional compounds follow:

SMILES	Potency
CCCCC(=O)Nc1cc(C)c(NC(=O)c2ccco2)cn1	inactive
COc1ccc(NC(=O)CC2CC3CCC2C3)cn1 (stereo not drawn)	inconclusive: 29.1 µM [activator, single point]
CCC/C(=N/Nc1ccc(Cl)cc1)c1cnnc(-c2ccccc2)n1	inconclusive: 6.51 µM [falling, single point]
O=C(Nc1cccc(S(=O)(=O)N2CCCCC2)c1)C1CCCN1S(=O)(=O)c1ccccc1F (stereo not drawn)	inconclusive: 13 µM [falling, partial curve, poor fit]
CC(C)Cn1c(N)c(C(=O)COC(=O)c2ccc(O)cc2O)c(=O)n(C)c1=O	inconclusive: 29.1 µM [falling, single point]
Cc1[nH]c2ccccc2c1C(C[N+](=O)[O-])c1cccs1 (stereo not drawn)	inconclusive: 0.103 µM [falling, full curve, poor fit]
C/C(=N\Nc1cccc2cccnc12)c1ccccn1	inconclusive: 1.16 µM [activator, full curve]
Cc1ccc(OCC(=O)NCC2CCCO2)c(C)c1 (stereo not drawn)	inconclusive: 3.66 µM [activator, partial curve, poor fit]
FC(F)(F)c1cccnc1-n1cncn1	inconclusive: 23.1 µM [falling, single point]
O=C(N/N=C/c1ccc2c(c1)OCO2)c1cccs1	inconclusive: 4.11 µM [activator, partial curve]
Cc1ccc2nc(N/C(=N/S(=O)(=O)c3cccs3)c3ccccc3Cl)sc2c1	inconclusive: 20.6 µM [activator, single point]
COc1cc2c(cc1OC)CN(CC(=O)Nc1ccccc1C(=O)NC1CC1)CC2	inactive
Cc1cc(C(=O)CN2C(=O)NC3(CCCCC3)C2=O)c(C)n1Cc1ccc2c(c1)OCO2	inconclusive: 29.1 µM [falling, single point]
O=C(O)C1C2C=CC(C2)C1C(=O)N1CCc2ccccc21 (stereo not drawn)	inactive
CCOc1ccc(-n2c(=S)sc3c(=O)[nH]c(SCC(=O)NC(C)CC)nc32)cc1 (stereo not drawn)	inactive
O=C(CSc1nc2ccccc2n1S(=O)(=O)c1cccc([N+](=O)[O-])c1)NCCc1ccccc1	active: 18.4 µM
CCOc1ccccc1N(C(=O)c1snc(C(N)=O)c1N)C(C(=O)NCc1ccccc1)c1ccc(O)cc1 (stereo not drawn)	inconclusive: 20.6 µM [falling, single point]
CCC(CC)C(=O)OCC(=O)NC12CC3CC(CC(C3)C1)C2	inconclusive: 29.1 µM [falling, single point]
CC(=O)Nc1ccc2c(c1)ncn2-c1ccccc1	inconclusive: 6.51 µM [activator, single point]
Cc1nc2c(c(C)nn2-c2ccccc2)c(C)c1CCC(=O)Nc1ccc(F)cc1	inconclusive: 14.6 µM [falling, partial curve, poor fit]
O=C(CCNC(=O)c1ccc(Cl)cc1)Nc1cccc(S(=O)(=O)N2CCCCCC2)c1	inconclusive: 25.9 µM [falling, single point]
COc1ccccc1C(=O)NCC(=O)N/N=C/c1cccc(Cl)c1	inconclusive: 7.31 µM [falling, partial curve, poor fit]
CC(C)(C)C(=O)N1CCN(c2ncnc3scc(-c4ccccc4)c23)CC1	inconclusive: 8.2 µM [falling, partial curve]

SMILES	Potency
CCCSC1=C(C#N)C2(CCCCC2)C(C#N)=C(N)N1	inconclusive: 29.1 µM [falling, single point]
O=C(Nc1nnc(-c2ccc3c(c2)CCCC3)o1)c1ccc(Cl)cc1Cl	inconclusive: 29.1 µM [falling, single point]
COc1ccc(C(=O)Nc2nc3ccccc3[nH]2)cc1S(=O)(=O)N1CCCC1	inconclusive: 1.16 µM [activator, full curve]
O=C(N/N=C/c1ccc(Cl)cc1)c1ccc2c(c1)OCO2	inconclusive: 4.11 µM [activator, single point]
CCN(CC)C(=O)CSc1nnc(CNc2ccc(F)cc2)n1Cc1ccco1	inconclusive: 1.3 µM [falling, full curve, poor fit]
CC1=NN(C(=O)c2ccc(Br)cc2)C(O)(C(F)(F)OC(F)(F)F)C1 (stereo not drawn)	inconclusive: 23.1 µM [falling, single point]
CCCn1nnnc1NCc1ccccc1C	inactive
Cc1ccc(NC(=O)c2cnccn2)cc1C	inconclusive: 1.03 µM [activator, full curve]
O=C(Nc1nonc1NC(=O)c1cccs1)c1cccs1	active: 1.64 µM
COc1ccc(C(=O)N2CCN(C(=O)C3COc4ccccc4O3)CC2)cc1 (stereo not drawn)	inconclusive: 29.1 µM [falling, single point]
COC(=O)c1cc(C(=O)OC)n(Cc2ccc(F)cc2)c1C	inactive
Cc1ccc(-c2csc(NC(=O)/C=C/c3ccco3)c2C(=O)O)cc1	inconclusive: 5.17 µM [activator, partial curve]
O=C(Cc1ccc(Cl)cc1)Nc1ccccc1N1CCOCC1	inconclusive: 6.51 µM [falling, full curve, poor fit]
CCO/C=C1/C(=O)N(CC)c2ccccc21	inconclusive: 32.6 µM [falling, single point]
O=c1c2ccccc2nc(/C=C/c2ccc(O)cc2)n1CCc1ccccc1	inconclusive: 23.1 µM [falling, single point]
Clc1ccc(CON/C=N/c2ncnc3sccc23)cc1	active: 20.6 µM
Cc1cccc(/C=N/Nc2cc(N3CCOCC3)nc(N3CCOCC3)n2)c1	inactive
Cc1c(CCCl)c(Cl)n2c(nc3ccccc32)c1C#N	inconclusive: 29.1 µM [falling, single point]
O=C(CSc1ccccn1)Nc1ccc2c(c1)OCCO2	inconclusive: 5.17 µM [activator, partial curve]
Cc1ccc(-n2nc3ccc(NC(=O)/C=C/c4ccco4)cc3n2)cc1C	inconclusive: 0.651 µM [falling, partial curve, poor fit]
O=C(NCCc1c[nH]c2ccccc12)c1ccc(Cl)cc1	inconclusive: 8.2 µM [activator, partial curve, poor fit]
CC1CCC(NC(=O)C2CCN(c3c4c(nc5ncnn35)CCC4)CC2)CC1 (stereo not drawn)	inconclusive: 9.2 µM [falling, partial curve]
